# Experimental data taken from the odorant receptor screen of Mainland et al. (2015).
# “And” between values parts separate entries of the source, which are not always exact repeats. Equal entries are not always repeated. The list shows a part of the results. Each value is one well over the wells without odorant, computed here; the data are noisy.
# Legend:
# Test in all cases: odorant receptor activation (CRE luciferase / Renilla) (fold of no-odor wells); higher = more activation
# Conditions in all cases: 100 µM
# [1] = system: OR2L8 clone 1515
# [2] = system: OR2M2 R220G/C235R clone 1494
# [3] = system: OR2M3 clone 1054
# [4] = system: OR2M4 clone 1053
# [5] = system: OR2M5 clone 1167
# [6] = system: OR2M7 F35L/V78A/C178F clone 1378
# [7] = system: OR2M7 F35L/V78A/C178F/D191N clone 1401
# [8] = system: OR2M7 clone 1377
# [9] = system: OR2S2 clone 1462
# [10] = system: OR2T1 P132L clone 1474
# [11] = system: OR2T10 clone 1047
# [12] = system: OR2T11 C119R/Q309R clone 1050
# [13] = system: OR2T11 C119R/Q309R clone 1051
# [14] = system: OR2T2 clone 1561
# [15] = system: OR2T29 clone 1545
# [16] = system: OR2T3 clone 1397
# [17] = system: OR2T34 clone 1049
# [18] = system: OR2T35 V31I clone 1562
# [19] = system: OR2T4 clone 1347
# [20] = system: OR2T5 clone 1033
Structure (SMILES),odorant receptor activation [1],odorant receptor activation [2],odorant receptor activation [3],odorant receptor activation [4],odorant receptor activation [5],odorant receptor activation [6],odorant receptor activation [7],odorant receptor activation [8],odorant receptor activation [9],odorant receptor activation [10],odorant receptor activation [11],odorant receptor activation [12],odorant receptor activation [13],odorant receptor activation [14],odorant receptor activation [15],odorant receptor activation [16],odorant receptor activation [17],odorant receptor activation [18],odorant receptor activation [19],odorant receptor activation [20]
CCCCCCCCC=O [nonyl aldehyde],1.08,0.966,1.16,1.17,0.913,0.898,0.834,0.958,0.963,1.19,0.972,0.814,1.13,0.672,1.31,0.81,0.919,1.09,0.9,1.02
"CC1CCC(C(C)C)C(O)C1 (single isomer, unassigned; (+)) [(+)-menthol]",1.39,0.847,2.35,3.69,1.32,0.768,0.6,0.75,1.03,1.29,3.32,3.76,3.2,0.85,1.19,0.854,3.39,1.36,1.15,2.7
C=C(C)C1CCC2=CC(=O)CC(C)C2(C)C1 (stereo unspecified) [amyl laurate],–,–,–,–,–,–,–,–,–,–,–,–,–,1.23,–,–,–,1.13,–,–
C=CCc1ccc(O)c(OC)c1 [eugenol],2.08 and 1.25 and 1.02,1.65 and 0.993 and 1.44,1.97 and 1.19,1.17 and 1.31,2.46 and 1.44,1.18 and 1.7,1.44 and 1.11,0.965 and 1.58,1.07 and 1.12 and 1.29,2.77 and 1.5 and 1.38,2.83 and 1.57,1.68 and 1.54,1.06 and 1.25,1.19,1.54,1.21 and 1.4,1.99 and 1.41,1.23,2.69 and 1.6,0.998 and 1.78
CC(=O)c1ccccc1 [acetophenone],1.21 and 0.714,1.03 and 0.686,1.67,0.809,1.06,0.801,0.962,0.607,0.958 and 0.867,0.987 and 1.55,1.23,1.15,1.17,–,–,0.878,1.16,–,2.98,0.757
CC=Cc1ccc(O)c(OC)c1 [isoeugenol],1.79 and 2.05,1.1 and 1.92,1.26,0.639,2.44,1.73,1.07,1.53,–,1.38 and 2.57,1,1.84,1.73,5.59,1.05 and 2.88,1.36,3.07,0.229,1.17 and 1.67,6.52
CCC1(O)C2(C)CCC(C2)C1(C)C (stereo unspecified) [2-ethylfenchol],1.21,0.845,2.81,3.19,0.882,0.72,0.52,0.705,1.15,1.06,4,2.71,3.03,0.675,1.18,2.85,2.56,0.142,0.937,2.65
CCCCCOC(C)=O [n-amyl acetate],1.18 and 0.762,0.809 and 0.989,1.24,1.13,0.583,0.875,0.995,0.757,0.889 and 0.943,0.575 and 1.38,2.13,1.54,2.05,0.647,–,0.766,1.85,1.09,0.738,0.854
CCCCCC(=O)O [caproic acid],1.2,0.916,0.955,0.928,0.877,0.216,0.192,0.215,0.997,0.903,0.855,0.953,1.15,0.55,0.803,0.264,0.859,0.878,0.778,0.86
COC(=O)c1ccccc1 [methyl benzoate],1.17 and 1.21,0.778 and 0.951,1.16,1.73,0.702,0.995,1.06,0.801,0.8 and 1.01,0.714 and 1.2,2.12,1.55,1.86,–,–,0.868,1.49,–,0.99,1.82
CC(C)(O)CCCC1=CCC(C=O)CC1 (stereo unspecified) [lyral],–,–,–,–,–,–,–,–,–,–,–,–,–,0.845,–,–,–,0.877,–,–
CC1=CCC(C(C)(C)O)CC1 (stereo unspecified) [terpineol],0.827,0.705,1.12,1.12,1.27,0.951,1.08,0.92,0.896,0.744,1.06,1.05,0.775,0.75,1.02,1.09,1.03,0.828,0.779,1.14
CC1COCc2cc3c(cc21)C(C)(C)C(C)C3(C)C (stereo unspecified) [galaxolide],5.95 and 4.98,–,1.55,2.07,4.92,3.79,2.67,4.42,–,6.63 and 4,5.63,1.5,4.26,–,–,3.03,4.79,0.387 and 1.14,–,3.67
CC(=O)C(C)=O [diacetyl],1.38,1.12,0.867,0.956,1.03,1.19,0.993,0.974,1.35,1.31,1.19,1.08,0.89,0.935,1.85,1.15,1.01,0.85,1.36,0.822
CC(=O)OC(C)(C)C1CC=C(C)CC1 (stereo unspecified) [terpinyl acetate],0.918,0.915,1.03,1.42,1.36,0.961,0.87,1.05,1.1,1.32,1.42,1.48,0.959,0.728,1.45,0.924,1.59,0.955,0.801,1.57
CC12CCC(CC1)C(C)(C)O2 [cineole],1.29,0.938,1.36,0.679,0.793,0.204,0.2,0.217,1.2,0.982,0.983,0.822,0.997,0.823,0.658,0.21,0.806,0.98,0.877,0.809
CC(C)C=O [isobutyraldehyde],0.738 and 0.918,1.01 and 1.02,1.09,0.644,1.4,0.832,0.702,1.08,0.97 and 1.13,1.15 and 1.16,0.842,0.713,1.06,0.873,1.12 and 1.1,0.983,1.32,0.094,0.855 and 0.811,0.683
CC1=NC(C)SC1C (stereo unspecified),0.885 and 0.898,1.06 and 0.966,1.14,1.21,0.745,0.731,0.96,0.83,0.934 and 1.12,1.06 and 1.26,0.98,0.689,0.535,–,–,0.875,0.81,–,1.14,0.873
O=C1CCCCC1 [Cyclohexanone],1.14 and 1.22,1.04 and 0.843,1.01,0.823,0.587,0.761,0.99,0.906,0.969 and 1.1,0.581 and 1.14,1,0.55,0.973,–,–,0.758,0.399,–,1.1,0.858
CC12C=CCC1C1CCC3CC(=O)CCC3(C)C1CC2 (stereo unspecified) [androstenone],1.22,0.988,1.18,1.8,5.99,1.17,0.997,1.01,1.02,0.932,1.41,1.29,2.07,–,1.13,0.899,1.54,–,1.49,1.19
c1cnccn1 [pyrazine],0.965,0.859,0.845,0.982,0.994,0.984,0.877,1.06,0.851,1.05,1.17,1.16,0.676,0.861,0.895,1.21,0.941,0.812,0.848,1.2
CCCCCCC=O [heptaldehyde],–,–,1.17 and 1.5,1.03 and 1.16,–,1.02 and 0.82,1.33 and 0.563,0.885 and 1.26,–,–,1.94 and 1.05,0.781 and 1.72,1.65 and 1.49,0.982,1.06 and 1.49,1.13 and 0.751,0.982 and 1.85,0.951,0.814 and 1.2 and 0.744,0.726 and 1.22
CCCCCCCCCCC=O [undecanal],1.23,1.09,0.982,1.04,0.961,1.12,1,0.98,1.15,1.04,1.21,0.971,0.874,0.781,0.797,1.22,1.13,1.1,1.03,1.12
CCCCCCCC=O [octyl aldehyde],1.06,0.898,1.21,1.33,1.05,0.839,0.722,1,1.08,1.01,1.07,0.959,1.24,0.689,1.04,0.852,0.864,0.999,0.782,1.06
CCCC(=O)O [butyric acid],1.63,1,1.27,1.22,1.08,0.204,0.226,0.261,0.764,1.21,1.11,1.19,1.17,0.708,0.915,0.274,1.03,1.18,0.823,0.951
CC12C=CCC1C1CCC3=CC(=O)CCC3(C)C1CC2 (stereo unspecified) [androstadienone],0.861 and 1.2,0.966 and 1.04,1.29,0.861,1.34,1.15,0.658,1.05,0.849 and 1.42,0.983 and 1.61,1.09,0.629,1.62,–,1.04 and 2.06,0.825,2.03,–,1.12 and 0.917,0.906
COC(=O)c1ccccc1O [methyl salicylate],1.08,0.913,1.04,1.38,0.796,0.845,0.951,0.962,0.958,1.07,1.1,1.05,1.11,0.86,0.911,1.14,0.848,0.756,0.785,1.12
COc1cc(C=O)ccc1O [vanillin],1.11,0.783,0.768,0.902,1.14,0.937,0.849,0.934,0.989,1.21,1.18,0.962,0.805,0.717,1.09,0.949,0.822,1.24,1.2,1.11
CC(C)(C)c1ccc(CCC=O)cc1 [bourgeonal],1.34,0.744,0.853,0.779,0.618,0.176,0.172,0.214,0.903,0.776,0.888,0.928,1.08,–,0.858,0.18,0.693,–,0.931,0.861
CCCCCC(C)=O [2-heptanone],0.904 and 0.752,0.885 and 0.832,0.631,0.553,1.25,0.85,0.917,0.764,0.963 and 0.706,0.768 and 1.05,1.66,0.846,1.41,–,–,0.821,0.67,–,2.38,0.583

# An excerpt of these results, bar-delimited.
Structure (SMILES) | odorant receptor activation [1] | odorant receptor activation [2] | odorant receptor activation [3] | odorant receptor activation [4] | odorant receptor activation [5] | odorant receptor activation [6] | odorant receptor activation [7] | odorant receptor activation [8] | odorant receptor activation [9] | odorant receptor activation [10] | odorant receptor activation [11] | odorant receptor activation [12] | odorant receptor activation [13] | odorant receptor activation [14] | odorant receptor activation [15] | odorant receptor activation [16] | odorant receptor activation [17] | odorant receptor activation [18] | odorant receptor activation [19] | odorant receptor activation [20]
CC(C)C=O [isobutyraldehyde] | 0.738 and 0.918 | 1.01 and 1.02 | 1.09 | 0.644 | 1.4 | 0.832 | 0.702 | 1.08 | 0.97 and 1.13 | 1.15 and 1.16 | 0.842 | 0.713 | 1.06 | 0.873 | 1.12 and 1.1 | 0.983 | 1.32 | 0.094 | 0.855 and 0.811 | 0.683
CC1=NC(C)SC1C (stereo unspecified) | 0.885 and 0.898 | 1.06 and 0.966 | 1.14 | 1.21 | 0.745 | 0.731 | 0.96 | 0.83 | 0.934 and 1.12 | 1.06 and 1.26 | 0.98 | 0.689 | 0.535 | – | – | 0.875 | 0.81 | – | 1.14 | 0.873
